For at least one compound, name, drawing or mass did not settle the structure.
Tested on: FOS protein
Assay: FOS protein level by Western blot in PMA-stimulated THP1 cells
Type: cell-based, human
Conditions: 10 μM simvastatin pretreatment 20 hours, 2 nM PMA, Western blot after 4 hours

CCC(C)(C)C(=O)O[C@H]1C[C@@H](C)C=C2C=C[C@H](C)[C@H](CC[C@@H]3C[C@@H](O)CC(=O)O3)[C@H]21 [statins, simvastatin]
levels of FOS protein: reduced

Reference: patent publication US7998682B2, “Method for assessing atherosclerosis by measuring expression of FOS or DUSP1 in monocytes” (The United States of America as represented by the …, priority 2004, dated 2011)
